PubChem BioAssay AID686938, Drosophila RNAi Screening Center, 2013
The screen tested about 23,000 reagents; shown is a random part of those that have a named target and a result. In the full data, 75 (0.33%) were called active. 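Raw plate signals without normalisation; calls rest on plate z-scores that were not deposited; ratio present for only 364 wells.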 Names joined by + are all predicted targets of the reagent. The record does not give: the dose of the treatment.

Aim: 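Knock-downs reducing store-operated calcium influx in Drosophila cells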 (primary screen)
Cells: Drosophila S2R+ cells
Reagent: long dsRNA against Drosophila genes, about 0.25 µg dsRNA per well, roughly 10,000 cells
Time to read-out: 5 days of knock-down before the calcium assay
Challenge: thapsigargin (SERCA pump blocker) to empty calcium stores; entry signal taken 4 min after adding it
Read-out: 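Duplicate raw fluo-4 intensities per well from a plate reader, at rest and four minutes after thapsigargin emptied calcium stores; entry-to-rest ratio filled for only some wells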
Direction: calcium entry signal: higher = stronger calcium signal after store depletion; entry to resting ratio: higher = more calcium entry relative to resting level; resting calcium signal: higher = higher resting calcium signal
Rule for the call: 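Called when the plate z-score of the entry-to-rest ratio, mean of duplicates, falls below −3; wells with low overall dye signal (Fmax z below −2) or more than five off-targets excluded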
Calls: active = strongly reduced calcium entry; inactive = no strong reduction

| gene knocked down | DRSC id | calcium entry signal, replicate 1 (fluorescence units) | calcium entry signal, replicate 2 (fluorescence units) | entry to resting ratio | resting calcium signal, replicate 1 (fluorescence units) | resting calcium signal, replicate 2 (fluorescence units) | activity call |
| --- | --- | --- | --- | --- | --- | --- | --- |
| Prim2 | DRSC11610 | 3.82e7 | 4.68e7 | – | 1.99e7 | 3.56e7 | inactive |
| Kyat | DRSC16147 | 4.28e7 | 4.14e7 | – | 2.07e7 | 2.09e7 | inactive |
| CG31459 | DRSC13380 | 4.37e7 | 3.46e7 | – | 2.04e7 | 1.60e7 | inactive |
| Gfat1 | DRSC21219 | 5.00e7 | 4.98e7 | – | 2.39e7 | 2.20e7 | inactive |
| Fas2 | DRSC17308 | 4.25e7 | 4.23e7 | – | 2.02e7 | 1.80e7 | inactive |
| Fas2 | DRSC17309 | 4.95e7 | 5.30e7 | – | 2.48e7 | 2.13e7 | inactive |
| Fas2 | DRSC18664 | 3.62e7 | 4.36e7 | – | 1.86e7 | 2.04e7 | inactive |
| Naxd | DRSC09722 | 3.82e7 | 5.00e7 | – | 1.80e7 | 3.28e7 | inactive |
| CG8586 | DRSC07218 | 4.61e7 | 4.35e7 | – | 1.91e7 | 1.92e7 | inactive |
| beat-IV | DRSC14195 | 5.06e7 | 4.49e7 | – | 2.28e7 | 1.95e7 | inactive |
| beat-IV | DRSC14673 | 3.55e7 | 5.89e7 | – | 1.76e7 | 2.28e7 | inactive |
| Acp36DE | DRSC01860 | 5.04e7 | 3.56e7 | – | 2.18e7 | 1.74e7 | inactive |
| l(2)k10201 | DRSC06439 | 3.65e7 | 3.96e7 | – | 1.75e7 | 1.71e7 | inactive |
| l(2)k10201 | DRSC07640 | 3.85e7 | 4.16e7 | – | 1.70e7 | 1.73e7 | inactive |
| Sirt2 | DRSC15714 | 3.23e7 | 4.97e7 | – | 5.38e7 | 2.20e7 | inactive |
| Vmat + CG13330 | DRSC06365 | 2.83e7 | 3.06e7 | – | 1.21e7 | 1.48e7 | inactive |
| Pisd | DRSC15935 | 3.28e7 | 3.30e7 | – | 1.70e7 | 1.48e7 | inactive |
| Ctf4 | DRSC06380 | 4.44e7 | 4.02e7 | – | 1.75e7 | 1.82e7 | inactive |
| dia | DRSC03519 | 3.87e7 | 5.55e7 | – | 2.01e7 | 2.68e7 | inactive |
| Alp4 | DRSC14116 | 3.84e7 | 6.24e7 | – | 1.93e7 | 2.48e7 | inactive |
| Tsp66A + CG42661 + CG42660 | DRSC10233 | 3.16e7 | 4.85e7 | – | 1.64e7 | 2.03e7 | inactive |
| MtnF | DRSC13683 | 4.56e7 | 3.98e7 | – | 1.94e7 | 2.09e7 | inactive |
| TwdlE | DRSC02392 | 2.47e7 | 3.26e7 | – | 1.08e7 | 1.45e7 | inactive |
| l(2)k09022 | DRSC02108 | 1.91e7 | – | – | 1.05e7 | – | inactive |
| mfrn | DRSC15687 | 2.84e7 | 4.05e7 | – | 1.61e7 | 1.78e7 | inactive |
| kraken | DRSC00824 | 2.99e7 | 2.97e7 | – | 1.44e7 | 1.47e7 | inactive |

3 of these entries in another layout.
gene knocked down	DRSC id	calcium entry signal, replicate 1 (fluorescence units)	calcium entry signal, replicate 2 (fluorescence units)	entry to resting ratio	resting calcium signal, replicate 1 (fluorescence units)	resting calcium signal, replicate 2 (fluorescence units)	activity call
Fas2	DRSC17309	4.95e7	5.30e7		2.48e7	2.13e7	inactive
Fas2	DRSC18664	3.62e7	4.36e7		1.86e7	2.04e7	inactive
Naxd	DRSC09722	3.82e7	5.00e7		1.80e7	3.28e7	inactive

Next results follow:
| gene knocked down | DRSC id | calcium entry signal, replicate 1 (fluorescence units) | calcium entry signal, replicate 2 (fluorescence units) | entry to resting ratio | resting calcium signal, replicate 1 (fluorescence units) | resting calcium signal, replicate 2 (fluorescence units) | activity call |
| --- | --- | --- | --- | --- | --- | --- | --- |
| moody | DRSC18515 | 6.66e7 | 6.48e7 | 2.2 | 3.06e7 | 2.77e7 | inactive |
| Sp1 | DRSC17622 | 3.82e7 | 3.90e7 | – | 1.82e7 | 1.72e7 | inactive |
| Sp1 | DRSC18717 | 3.86e7 | 4.82e7 | – | 1.94e7 | 2.23e7 | inactive |
| to | DRSC17086 | 3.64e7 | 5.44e7 | – | 1.78e7 | 2.20e7 | inactive |
| Idh3g | DRSC15699 | 3.85e7 | 5.12e7 | – | 1.66e7 | 2.22e7 | inactive |
| Pop5 | DRSC10074 | 2.84e7 | 5.61e7 | – | 1.49e7 | 2.14e7 | inactive |
| Rh2 | DRSC16821 | 2.21e7 | 3.23e7 | – | 3.21e7 | 1.32e7 | inactive |
| CG7739 | DRSC10910 | 3.55e7 | 3.35e7 | – | 1.64e7 | 1.41e7 | inactive |
| Gapvd1 | DRSC19752 | 3.38e7 | 3.32e7 | – | 1.64e7 | 1.46e7 | inactive |
| TTLL1B | DRSC08594 | 2.58e7 | 3.21e7 | – | 1.28e7 | 1.50e7 | inactive |
| DUBAI + Tmem18 | DRSC05344 | 4.52e7 | 5.55e7 | – | 2.03e7 | 2.31e7 | inactive |
| CG31705 | DRSC01991 | 3.51e7 | – | – | 2.57e7 | – | inactive |
| CG31789 | DRSC01645 | 2.36e7 | 3.45e7 | – | 1.24e7 | 1.37e7 | inactive |
| CG13318 | DRSC14581 | 4.97e7 | 4.99e7 | – | 2.34e7 | 2.31e7 | inactive |
